Laboratory results: PubChem BioAssay (EPA / NIEHS)
Inconclusive means that the source gave no clear call. Such entries were picked first, then a sample of the others. A potency beside an inconclusive call is a rough fit, not a confirmed value. Calls of active or inactive are those of the source. How the source made its calls: active means hit-call score of the fitted dose curve at least 0.9, where 1 is the maximum; inconclusive means response in the unintended direction; inactive means score below 0.9.

Assay: TAMU_PeakParms_SingleDonor1434_Asystole: Texas A&M University (TAMU) 1.5-hr Human Induced Pluripotent Stem Cell (iPSC)-derived Cardiomyocytes Calcium (Ca+2) Flux Assay for Cardiotoxicity: Asystole (quiescence of beating) (AID 2284328)
Summary of the method: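 Human iPSC-derived cardiomyocytes (donor 1434) were exposed to 0.2, 1, 10 and 100 uM compound in 0.5% DMSO for 90 min at 37C. Ca2+-dye fluorescence gave average peak frequency; POD is EC95, a 95% beat-rate drop versus DMSO.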

SMILES | AC50
Cc1occc(=O)c1O | inconclusive: 50 µM
O=C1O[C@H]([C@@H](O)CO)C(O)=C1O | inconclusive: 50 µM
Oc1c(Cl)cc(Cl)c(Cl)c1Cc1c(O)c(Cl)cc(Cl)c1Cl | active: 2.11 µM

Assay: VALA_TUBIPS_Antagonist_CellCount: Viability Assessment in the VALA Sciences human iPS-derived Endothelial Tubule Formation (TUBIPS) Antagonism Assay (AID 2284335)
Protocol: VALA_TUBIPS_Agonist is a cell-based, multiplexed assay that uses human iPS-derived endothelial cells (iPSC). Measurements were taken 72 hours after chemical dosing in a 96-well plate.VALA_TUBIPS_Antagonist_CellCount is the one of two assay components measured from the VALA_TUBIPS_Antagonist assay. It is designed to make measurements of viability, a form of viability reporter, as detected with fluorescence intensity signals by HCS Fluorescent Imaging technology. Data from the assay component VALA_TUBIPS_Antagonist_CellCount was analyzed at the endpoint, VALA_TUBIPS_Antagonist_CellCount, in the positive analysis fitting direction relative to DMSO as the negative control and baseline of activity. Using a type of viability reporter, loss-of-signal activity can be used to understand viability. To generalize the intended target to other relatable targets, this assay endpoint is annotated to the cell cycle intended target family, where the subfamily is cell count.
[…]

SMILES | outcome | AC50
Cn1cc[nH]c1=S | inactive | 
Nc1nc(Cl)nc2c1ncn2[C@H]1C[C@H](O)[C@@H](CO)O1 |  | active: 0.956 µM
CCCCCCCCCCCCc1ccccc1S(=O)(=O)O | inactive | 
CCCCC(CC)COP(=O)(OCC(CC)CCCC)OCC(CC)CCCC (stereo not given) |  | inconclusive: 0.0147 µM

Assay: VALA_MIGHUV1_ScratchOnly_WoundArea: VALA Sciences human Umbilical Vein Endothelial Cell Migration (MIGHUV) Assay, Area of Scratch Wound Inhibited Recovery (AID 2284336)
Summary of the method: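 Wound area remaining after 24 h recovery imaged by Hoechst nuclear fluorescence in scratched HUVEC cultures, chemicals added within 30 min of scratching across a 6-point series. Gain of signal fitted against 0.1% DMSO; cytochalasin D positive control.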

SMILES | outcome | AC50
Cn1cc[nH]c1=S | inactive | 
CCCCC(CC)COP(=O)(OCC(CC)CCCC)OCC(CC)CCCC (stereo not given) |  | inconclusive: 10 µM
OC[C@@H](O)[C@@H](O)[C@H](O)[C@H](O)CO |  | inconclusive: 50 µM
